According to publication PMC8964499 (Frontiers in Chemistry, 2022):

Experiment: general procedure: Fmoc solid-phase peptide synthesis; Rink amide resin (100–200, 0.25 mmol/g); 2-Chlorotrityl resin; HCTU/DIPEA
Conditions: whole synthesis, 214 nm, scale of the general procedure 100 μmol, TFA salt (peptides, PNAs); formic acid salt (conjugates)

Row | Substance | final purity (method not given)
1 | CINA-PEG-Cyt-Gua-Ade-Thy-Cyt-Ade-Thy-Thy-Cyt-Ade-Ade-Ade-Lys-NH2 | 87.96%
2 | CINA-PEG-Cyt-Thy-Cyt-Ade-Thy-Ade-Cyt-Thy-Cyt-Thy-Lys-NH2 | 97.67%
3 | CINA-PEG-Gly-Lys-Pro-Arg-Pro-Tyr-Ser-Pro-Arg-Pro-Thr-Ser-His-Pro-Arg-Pro-Ile-Arg-Arg-NH2 | 95.46%
4 | CINA-PEG-OctGly-Dab-Thr-Dab-Dab ^b -Dab-D-Phe-Leu-Dab-Dab-Thr ^b | 96.51%
5 | CINA-PEG-Thy-Cyt-Cyt-Ade-Thy-Thy-Ade-Thy-Thy-Gau-Lys-NH2 | 96.18%
6 | CINA-PEG-Thy-Thy-Thy-Cyt-Thy-Cyt-Gua-Thy-Cyt-Ade-Lys-NH2 | 98.58%
7 | CINA-PEG-Val-Cys ^d -Lys-Arg-trp-Lys-Lys-Trp-Lys-Arg-Lys-Trp-Lys-Lys-Trp-Cys ^d -Val-NH2 | 96.20%
8 | Cys-PEG-Cyt-Thy-Cyt-Ade-Thy-Ade-Cyt-Thy-Cyt-Thy-Thy-Gua-Lys-NH2 | 98.93%
9 | Cys-PEG-OctGly-Dab-Thr-Dab-Dab ^b -Dab-D-Phe-Leu-Dab-Dab-Thr ^b | 95.05%
10 | H-Arg-Acp-Arg-Arg-Acp-Arg-Arg-Acp-Arg-Arg-Acp-Arg-PEG-Lys (CINA)-NH2 | 92.85%
